Source: publication PMC3192180
No constants are given. Whether binding was seen depends on the method and setting.

By UniProt entry, the sequences of proteins in these tests, tags left out. Residues count along the entry.
UniProt P60615, residues 22-95: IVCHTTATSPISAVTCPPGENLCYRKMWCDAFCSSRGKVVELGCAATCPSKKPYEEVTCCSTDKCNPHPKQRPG

Target: T1, wild type KV10.1 (UniProt O95259)
T1 sequence: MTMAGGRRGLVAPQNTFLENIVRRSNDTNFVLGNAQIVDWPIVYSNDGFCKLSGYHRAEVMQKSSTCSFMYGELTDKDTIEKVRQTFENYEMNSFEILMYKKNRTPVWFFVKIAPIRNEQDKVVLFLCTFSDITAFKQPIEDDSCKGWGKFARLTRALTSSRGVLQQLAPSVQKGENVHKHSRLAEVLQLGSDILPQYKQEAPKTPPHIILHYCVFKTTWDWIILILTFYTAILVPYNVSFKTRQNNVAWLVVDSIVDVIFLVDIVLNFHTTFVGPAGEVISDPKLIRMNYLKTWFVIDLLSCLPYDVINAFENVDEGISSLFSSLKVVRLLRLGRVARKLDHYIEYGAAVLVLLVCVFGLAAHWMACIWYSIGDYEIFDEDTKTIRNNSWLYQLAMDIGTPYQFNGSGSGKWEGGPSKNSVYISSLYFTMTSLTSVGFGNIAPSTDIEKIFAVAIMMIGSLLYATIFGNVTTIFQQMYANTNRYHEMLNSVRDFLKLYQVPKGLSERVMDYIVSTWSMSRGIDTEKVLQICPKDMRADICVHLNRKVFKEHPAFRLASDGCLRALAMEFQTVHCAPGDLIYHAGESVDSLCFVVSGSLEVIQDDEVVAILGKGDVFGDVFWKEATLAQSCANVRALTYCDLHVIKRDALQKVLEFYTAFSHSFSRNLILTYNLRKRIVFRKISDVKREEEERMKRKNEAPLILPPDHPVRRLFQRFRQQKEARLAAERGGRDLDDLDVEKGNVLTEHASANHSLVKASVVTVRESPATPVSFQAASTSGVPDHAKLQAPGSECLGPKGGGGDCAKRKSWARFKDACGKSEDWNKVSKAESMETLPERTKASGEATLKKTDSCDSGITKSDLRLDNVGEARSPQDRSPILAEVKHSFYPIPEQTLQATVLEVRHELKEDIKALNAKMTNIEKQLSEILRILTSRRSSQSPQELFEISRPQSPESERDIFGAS
Assay: cellular uptake of biotinylated toxin, blot with streptavidin-peroxidase; only the binder purified

## α-bungarotoxin-biotin (from UniProt P60615 22-95)
  binding: no binding (tested: 0.15 µM)
